The results in this text go back to the supplement of paper PMC7024190.

Structures are written as SMILES. Counter-ions that a name gives are not always drawn. The list shows a part of the results. Repeats in this data set agree poorly, so a single value says little.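 A first-round screen of about ten thousand compounds sought those raising reporter output, using human embryonic kidney cells briefly transfected with a plasmid carrying a Renilla luciferase gene driven by the HSV-TK promoter.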

This assay deals with HEK 293FT. In words: log relative Renilla luciferase luminescence (reporter expression vs reference, reference not stated) (log (base not stated)); higher = higher recombinant reporter expression. The settings on record: 10 µM; time after transfection 48 h.
With `CC1=C(C(=O)O)N2C(=O)[C@@H](NC(=O)[C@H](N)c3ccccc3)[C@H]2SC1` [cephalexin], the log amounted to 0.00121. With `Cc1nccn1CC1CCc2c(c3ccccc3n2C)C1=O` (stereo unspecified) [ondansetron], the log is -0.0569. With `NC(=O)c1cc[n+](CC2=C(C(=O)[O-])N3C(=O)[C@@H](NC(=O)Cc4cccs4)[C@H]3SC2)cc1` [cefalonium] the figure was 0.0443; with `O=C1C(O)=C(O)C(=O)C(O)=C1O` [tetroquinone], 0.202; with `CC(=O)NC[C@H]1CN(c2ccc(N3CCOCC3)c(F)c2)C(=O)O1` [linezolid], -0.0491. With `Cc1c2oc3c(C)ccc(C(=O)N[C@@H]4C(=O)N[C@H](C(C)C)C(=O)N5CCC[C@H]5C(=O)N(C)CC(=O)N(C)[C@@H](C(C)C)C(=O)O[C@@H]4C)c3nc-2c(C(=O)N[C@@H]2C(=O)N[C@H](C(C)C)C(=O)N3CCC[C@H]3C(=O)N(C)CC(=O)N(C)[C@@H](C(C)C)C(=O)O[C@@H]2C)c(N)c1=O` [dactinomycin] the figure was -1.57. Take `COc1ccc2c(c1)c(CC(=O)OCC(=O)O)c(C)n2C(=O)c1ccc(Cl)cc1` [acemetacin]: the log is 0.0552. For the compound `COc1ccc2cc3[n+](cc2c1OC)CCc1cc2c(cc1-3)OCO2` [berberine chloride], the log turned out to be 0.0578. With `COc1ccc2c(c1)OC[C@@H](Cc1ccc(OC)c(OC)c1)[C@@H]2O` [3-deshydroxysappanol trimethyl ether] the figure was 0.0596; with `O=C(c1cccnc1)N1CCOCC1` [nicopholine], 0.0983. With `OCC(S)CS` (stereo unspecified) [dimercaprol] the figure was -0.32; with `COC(=O)C[C@H]1C(C)(C)C(=O)[C@@H]2CC3C4=CC(=O)O[C@@H](c5ccoc5)[C@]4(C)CC[C@@H]3[C@@]1(C)C2=O` (stereo partly specified) [carapin], 0.265. Then `CC(C)=CC1C(C(=O)O)C1(C)C` (stereo unspecified) [chrysanthemic acid], with -0.0709; and `CC(C)Cn1c(=O)n(C)c(=O)c2nc[nH]c21` [isobutylmethylxanthine], with -0.0457. Turning to `CC[C@@]1(O)C(=O)OCc2c1cc1n(c2=O)Cc2cc3c(CN(C)C)c(O)ccc3nc2-1` [topotecan hydrochloride], the log is -0.938. Then `Nc1nnc(-c2cccc(Cl)c2Cl)c(N)n1` [lamotrigine], with -0.056; and `O=C(O)/C=C(\CC(=O)O)C(=O)O` [aconitic acid], with 0.0437; and `Nc1nc(=O)[nH]cc1F` [flucytosine], with 0.144. With `Cc1c(C)c2c(c(C)c1O)CCC(C)(CCCC(C)CCCC(C)CCCC(C)C)O2` (stereo not drawn) [alpha-tochopherol] the figure was -0.0153; with `CC(=O)O[C@]1(C(C)=O)CC[C@H]2[C@@H]3C=C(C)C4=CC(=O)CC[C@]4(C)[C@H]3CC[C@@]21C` [megestrol acetate], -0.167; with `NC[C@H]1O[C@H](O[C@H]2[C@H](O)[C@@H](O[C@H]3O[C@H](CO)[C@@H](O)[C@H](N)[C@H]3O)[C@H](N)C[C@@H]2N)[C@H](N)[C@@H](O)[C@@H]1O` [bekanamycin sulfate], -0.0543.

For `COc1cc(O)c(C(=O)c2ccccc2)cc1O` [cearoin], the log turned out to be 0.0987.

In the case of `C#CC1(O)CC[C@H]2[C@@H]3CCC4=CC(=O)CC[C@@H]4[C@H]3CC[C@@]21CC` (stereo partly specified) [norgestrel], the log was -0.278. Consider `OCC(O)C(O)C(O)CO` (stereo unspecified) [adonitol], for which the log turned out to be 0.0873. On to `OCC(O)C(O)C(O)CO` (stereo unspecified) [arabitol(d)], for which the log came out at 0.0403. On to `O=C1OC(=O)[C@H]2[C@@H]1[C@@H]1CC[C@H]2O1` [norcantharidin], for which the log was 0.0949. `C[C@]12CCC3c4ccc(OS(=O)(=O)O)cc4CCC3C1CC[C@H]2O` (stereo partly specified) [estradiol-3-sulfate, sodium salt]: the log amounted to 0.0695. With `CC(C)NC(=N)NC(=N)Nc1ccc(Cl)cc1` [chloroguanide hydrochloride] the figure was 0.0323; with `COc1ccc2c3c1O[C@H]1C[C@@H](O)C=C[C@@]31CCN(C)C2` [galantamine], -0.0606.

For `CCCC(=O)O[C@]1(C(=O)CO)CC[C@H]2[C@@H]3CCC4=CC(=O)CC[C@]4(C)[C@H]3[C@@H](O)C[C@@]21C` [hydrocortisone butyrate], the log amounted to 0.0405.

In the case of `CC1(C)S[C@@H]2[C@H](NC(=O)COc3ccccc3)C(=O)N2[C@H]1C(=O)O` [penicillin v potassium], the log was 0.022. Then `Cc1nnc(SCC2=C(C(=O)O)N3C(=O)[C@@H](NC(=O)Cn4cnnn4)[C@H]3SC2)s1` [cefazolin sodium], with 0.119; and `O=c1[nH]c(=O)n([C@H]2C[C@H](O)[C@@H](CO)O2)cc1C(F)(F)F` [trifluridine], with -0.062.

As for `CCCCCCCCNC(C)C(O)c1ccc(SC(C)C)cc1` (stereo unspecified) [suloctidil], the log was -0.00899. Then `CC(=O)CC(c1ccc([N+](=O)[O-])cc1)c1c(O)c2ccccc2oc1=O` (stereo unspecified) [acenocoumarol], with 0.0749; and `C[C@H]1O[C@@H](O[C@H]2[C@@H](O)C[C@H](O[C@H]3[C@@H](O)C[C@H](O[C@H]4CC[C@@]5(C)[C@H](CC[C@@H]6[C@@H]5CC[C@]5(C)[C@@H](C7=CC(=O)OC7)CC[C@]65O)C4)O[C@@H]3C)O[C@@H]2C)C[C@H](O)[C@@H]1O` [digitoxin], with -1.49. With `C=C(C)[C@@H]1CC[C@]2(C)CC[C@]3(C)[C@H](CC[C@@H]4[C@@]5(C)CC[C@H](O)C(C)(C)[C@@H]5CC[C@]43C)[C@@H]12` [lupeol] the figure was 0.0985; with `S=c1[nH]cnc2nc[nH]c12` [mercaptopurine], -0.0748; with `COc1cc2c(cc1OC)[C@@H]1C(=O)c3ccc4c(c3O[C@@H]1CO2)C=CC(C)(C)O4` [deguelin(-)], -1.29. With `CC(C)[C@@H]1CC[C@@H](C)CC1=O` [menthone] the figure was -0.0678; with `NCCCCN` [putrescine dihydrochloride], 0.033; with `CC1=CC2C(CC1=O)C(C)=CCC2C(C)C` (stereo unspecified) [muurolladie-3-one], 0.141.

As for `O=C1N=C(O)NC1(c1ccccc1)c1ccccc1` [phenytoin sodium], the log was -0.0895. With `COc1cc(NS(=O)(=O)c2ccc(N)cc2)nc(OC)n1` [sulfadimethoxine] the figure was 0.0715. As to `CC[N+](CC)(CC(=O)Nc1c(C)cccc1C)Cc1ccccc1` [denatonium benzoate], the log was 0.213. With `CC1(C)O[C@@H]2[C@@H](CO[C@@]3(COS(N)(=O)=O)OC(C)(C)O[C@@H]23)O1` [topiramate] the figure was 0.123.
